Reference: PubChem BioAssay AID624291 (National Center for Advancing Translational Sciences (NCATS), 2012)
About 220 (0.063%) of roughly 350,000 compounds were called active. Inconclusive results, whose numbers are uncertain, are shown with a selection of clear calls. Calls follow the shape of the dose curve; as a rule, active = well fitted activation curve with a large enough effect; inconclusive = small, poorly fitted or top-dose-only effect; inactive = no such curve, though single readings can be large or run the other way. A potency beside an inconclusive call is a rough fit, not a confirmed value.
Potency is read from the fitted curve at half-maximal effect.

Experiment: qHTS for Activators of Integrin-Mediated Alleviation for Muscular Dystrophy; also: nearly all actives have a fitted effect of over 60% in size;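 as to activation: 100% = response of the positive control SU9516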
Conditions: alpha7betagal myoblasts, beta-gal FDG fluorescence, 48 h; activation: at 38.3 µM (top of the series)
Summary of the method: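 Alpha7betagal+/- myoblasts (passage 13) were plated 16-24 hr, then exposed to compounds (1:260 dilution of DMSO stock) for 48 hours at 37C. After MPER lysis, β-galactosidase reporter activity was read as FDG fluorescence (ex 480/em 540) after 30 minutes.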
In the case of `CN(C(=O)c1ccc2nc(N)sc2c1)c1ccccc1`, the Potency is reported as inconclusive: 28.2 µM [activator, single point]. For `O=C1N(Cc2cccc(Cl)c2)C[C@@H]2C[C@@H](c3ccc4nonc4c3)N3CCC[C@@]123`, the Potency was inconclusive: 5.01 µM [activator, single point]. With `Cc1ccc(Cn2c(C3CCCN3c3nc(C)cs3)nc3cc(C(F)(F)F)ccc32)cc1` (centres undefined) the Potency was “inactive”. For `Cc1ccc(-c2nc(-c3ccncc3)no2)cc1Cl`, the Potency was inconclusive: 0.501 µM [activator, full curve, poor fit]. With `Cc1cccc(NC(=O)CSc2nnc(-c3ccccc3)n2N)c1` the Potency was “inactive”. In the case of `COc1ccc(OC)c(/C=N/NC(=O)CSc2cc(C)nc3c(OC)cccc23)c1`, the Potency is reported as “inactive”. For `CC(C)Oc1cccc(C(=O)C2CCCN(S(C)(=O)=O)C2)c1` (centres undefined), the Potency was inconclusive: 22.4 µM [activator, single point]. For `Cc1ccc(CN2CCN(c3ccccn3)CC2)s1`, the Potency was “inactive”. For `C/C(=N\NC(=O)C1CC1)c1ccc(C)cc1C`, the Potency was inconclusive: 5.01 µM [activator, single point]. For `CCOC(=O)C1(Cc2ccccc2)CCCN(S(=O)(=O)N(C)C)C1` (centres undefined), the Potency was inconclusive: 1.12 µM [activator, full curve, poor fit]. For `COc1cccc(CNC(=O)CSc2nc3ccc(C)cc3[nH]2)c1`, the Potency was inconclusive: 5.01 µM [activator, single point]. In the case of `CCN(CC)C(=O)Cn1c(=O)n(CCCC(=O)NCc2ccccc2)c(=O)c2sccc21`, the Potency is reported as inconclusive: 2.24 µM [activator, single point]. For `N#CC1=C(N)Oc2cc(N)ccc2C1c1cccc(F)c1` (centres undefined), the Potency was “inactive”. In the case of `COc1cc(/C=C2\NC(=S)N(C)C2=O)ccc1OCc1ccccc1F`, the Potency is reported as inconclusive: 5.01 µM [activator, single point]. In the case of `CCOC(=O)C1CCN(Cc2cc(C(C)C)c(O)c(C(C)C)c2)CC1`, the Potency is reported as “inactive”. For `O=C(Nc1ccc(F)cc1)c1cc2ccccc2o1`, the Potency was inconclusive: 0.891 µM [activator, full curve, poor fit]. With `COc1ccc(OC)c(NC(=S)N2CCc3ccccc3C2)c1` the Potency was inconclusive: 3.98 µM [activator, single point]. In the case of `Cc1ccc(C(=O)C2=C(O)C(=O)N(c3ncccn3)C2c2ccccc2F)o1` (centres undefined), the Potency is reported as inconclusive: 3.55 µM [activator, single point]. In the case of `O=C(CS(=O)(=O)c1ccccc1)NCc1ccco1`, the Potency is reported as inconclusive: 8.91 µM [activator, partial curve, poor fit]. With `Cc1ccc(Cn2ccc(C3CC3)n2)cc1` the Potency was inconclusive: 11.2 µM [activator, single point]. For `Cc1ccnc(SCC(=O)c2cc3ccccc3o2)n1`, the Potency was inconclusive: 3.55 µM [activator, full curve, poor fit]. In the case of `Nc1nc(/C=C/c2cccnc2)nc(-c2ccccc2O)n1`, the Potency is reported as “inactive”. With `COC(=O)c1ccccc1NC(=O)c1noc2c1CC(C(C)(C)C)CC2` (centres undefined) the activation was inactive: 16.4% [at 7.66 µM]. In the case of `CS(=O)(=O)N(CCCC(=O)N1CCCCCC1)c1cccc(Cl)c1`, the Potency is reported as inconclusive: 28.2 µM [activator, single point]. With `CC(Sc1nnc(CN2CCCC2)n1Cc1ccccc1)C(=O)Nc1ccc(F)cc1` (centres undefined) the Potency was inconclusive: 3.55 µM [activator, single point]. In the case of `O=C(Nc1ccc(Cl)cc1)N1CCOCC1`, the Potency is reported as inconclusive: 2.82 µM [activator, partial curve, poor fit]. In the case of `COC(=O)C1CC(O)CN1S(=O)(=O)c1ccc2ccccc2c1` (centres undefined), the Potency is reported as inconclusive: 5.01 µM [activator, single point]. For `COC(=O)CSc1nc2cc(OC)ccc2n1C`, the Potency was inconclusive: 2.24 µM [activator, full curve, poor fit]. In the case of `Cc1ccc(Nc2nc(N)nc(CN3CCCCCC3)n2)cc1`, the Potency is reported as “inactive”. With `CC(=O)n1cc([C@H]2C=C(C(=O)N3CCN(Cc4ccc5c(c4)OCO5)CC3)O[C@@H](OCc3ccc(CO)cc3)C2)c2ccccc21` the Potency was “inactive”. In the case of `Cc1nn(S(=O)(=O)c2ccc(C(C)(C)C)cc2)c(C)c1S(=O)(=O)N1CCOCC1`, the Potency is reported as inconclusive: 11.2 µM [activator, single point]. With `CCOc1ccc(CNC(c2ccccc2)c2ccccc2)cc1` the activation was inconclusive: -47.9% [activator]. In the case of `O=C(C(=O)c1cccnc1)c1cccnc1`, the Potency is reported as inconclusive: 1 µM [activator, partial curve, poor fit]. With `CCNC(=O)C1CCCN(c2nc(C)cc(C)n2)C1` (centres undefined) the Potency was “inactive”. With `COc1ccc(CCN(Cc2ccccn2)C(=S)Nc2ccccc2Cl)cc1OC` the Potency was “inactive”. With `Cc1[nH]n(-c2ccccc2)c(=O)c1/C=N/NC(=O)c1ccc(O)cc1O` the Potency was “inactive”. With `COc1ccc(C)cc1NC(=O)CNCc1cccs1` the Potency was inconclusive: 12.6 µM [activator, partial curve, poor fit]. In the case of `O=C(CN1C(=O)COc2ccc(Cl)cc21)N1CCCCC1`, the Potency is reported as inconclusive: 8.91 µM [activator, partial curve, poor fit]. With `Cc1ccc(S(=O)(=O)Cn2nnnc2C(C(C)C)N2CCC(C(N)=O)CC2)cc1` (centres undefined) the Potency was inconclusive: 7.94 µM [activator, partial curve]. In the case of `COc1cc(OC)c2c(-c3cccc(-c4cccc(C)c4)c3)cc(=O)oc2c1`, the Potency is reported as “inactive”. For `Cc1nn(C)cc1C1C(C#N)=C(N)N(c2cccnc2)C2=C1C(=O)CCC2` (centres undefined), the Potency was inconclusive: 5.01 µM [activator, partial curve]. In the case of `CNc1nnc(-c2ccco2)s1`, the Potency is reported as inconclusive: 5.01 µM [activator, single point]. For `OCC(CO)(CO)n1cnnn1`, the Potency was “inactive”. For `Fc1cc(Cl)ccc1NC1=NCCCCC1`, the Potency was “inactive”. With `COc1ccc(C(=O)NC2CCSC2=O)cc1` (centres undefined) the Potency was inconclusive: 20 µM [activator, single point]. For `CCc1ccc(/C=C/c2c([N+](=O)[O-])c(=O)n(C)c(=O)n2C)cc1`, the Potency was “inactive”. For `CCNc1nc(NCC)n2c(SCc3ccc(F)cc3)nnc2n1`, the Potency was inconclusive: 28.2 µM [activator, single point]. With `Nc1nc(-c2ccccc2Cl)cs1` the Potency was “inactive”. For `COC1=CC(=Cc2c(N)n3nc(CC(=O)N4CCCCC4)sc3nc2=O)C=C(OC)C1=O`, the Potency was inconclusive: 1.78 µM [activator, single point]. For `CC(C)(C)NS(=O)(=O)c1ccc(NS(C)(=O)=O)cc1`, the Potency was inconclusive: 3.55 µM [activator, single point]. With `CCn1c(=O)cc(OCC(=O)NC2CCCCC2)c2ccccc21` the Potency was “inactive”. For `CSCCC(NC(=O)COc1ccccc1)C(=O)NCCOc1ccc(C)cc1` (centres undefined), the Potency was inconclusive: 5.01 µM [activator, single point]. For `CCCS(=O)(=O)c1nc(S(=O)(=O)c2ccc(C)cc2)c(N2CCC(O)CC2)s1`, the Potency was inconclusive: 2 µM [activator, partial curve, poor fit]. For `CC(=O)c1ccc(N=Nc2ccc(N)cc2)cc1`, the Potency was “inactive”. With `FC(F)(F)c1ccc(Cl)c(NC(=S)NC2CC2)c1` the Potency was “inactive”. With `CCOC(=O)c1cnc2ccc(OCC)cc2c1NCCN1CCOCC1` the Potency was “inactive”. In the case of `COc1ccc(-c2cc(C#N)nc(N3CCN(c4ccccc4)CC3)n2)cc1`, the Potency is reported as inconclusive: 3.98 µM [activator, partial curve, poor fit]. With `Nc1nnc(CC(=O)N/N=C/c2cccc([N+](=O)[O-])c2)s1` the Potency was “inactive”. With `Clc1ccc(CN2C3=NCCCN3c3ccccc32)c(Cl)c1` the Potency was “inactive”. With `Cc1ccc2nc(NCc3ccccc3)[nH]c2c1` the Potency was “inactive”. In the case of `COc1ccc(NC2=C(NC(C)=O)C(=O)c3ccccc3C2=O)cc1`, the Potency is reported as inconclusive: 4.47 µM [activator, single point]. In the case of `CC(C)(/C=N/NC(=O)CSCc1ccccc1Cl)CCC#N`, the Potency is reported as inconclusive: 28.2 µM [activator, single point]. In the case of `Cc1ccc(S(=O)(=O)NCC(=O)N(CC(=O)NC2CCCC2)CC2CCCO2)cc1` (centres undefined), the Potency is reported as “inactive”. With `CCOc1ccc(N2C(=O)Nc3ccccc3C2(O)C(=O)NCc2ccccc2)cc1` (centres undefined) the Potency was inconclusive: 2 µM [activator, partial curve, poor fit]. With `O=C(CN(Cc1ccc(F)cc1)C(=O)CNS(=O)(=O)c1ccccc1)NCC1CCCO1` (centres undefined) the Potency was inconclusive: 2.51 µM [activator, single point]. With `O=C(O)CSCC(=O)Nc1ccc(C2CCCCC2)cc1` the Potency was “inactive”. With `Cc1nnc(SCC(=O)Nc2ccc(S(=O)(=O)Nc3ccc(Cl)nn3)cc2)s1` the Potency was inconclusive: 28.2 µM [activator, single point]. With `CCSc1nc(N)c(C#N)c(-c2ccco2)c1C#N` the Potency was inconclusive: 3.16 µM [activator, partial curve, poor fit]. With `COc1ccc(-c2cc(C)no2)cc1S(=O)(=O)N1CCN(c2ccccn2)CC1` the Potency was “inactive”. In the case of `Nc1nccc(-c2ccc(-n3cccc3)cc2)n1`, the Potency is reported as inconclusive: 28.2 µM [activator, single point]. In the case of `CCOc1ccc(-n2ccc(=O)c(C(=O)Nc3ccc(S(=O)(=O)Nc4nccs4)cc3)n2)cc1`, the Potency is reported as inconclusive: 0.501 µM [activator, full curve, poor fit]. With `COc1cccc(-c2nc(CS(=O)(=O)CC(=O)NCCCN3C(C)CCCC3C)c(C)o2)c1` (centres undefined) the Potency was inconclusive: 5.01 µM [activator, single point]. In the case of `COC(C(=O)Nc1c(F)cccc1F)c1ccccc1` (centres undefined), the Potency is reported as inconclusive: 22.4 µM [activator, single point]. With `C=CCNC(=S)N1CCN(Cc2ccccc2)CC1` the Potency was inconclusive: 28.2 µM [activator, partial curve, poor fit].
